Test results published in publication PMC12551952.
No constants are given. Whether binding was seen depends on the method and setting. Binding seen in cells or lysates may run through a third protein. Some results given as binding are weak or reduced against the parent protein; the word gives no strength. Where a sequence is shown, tags or fusion partners need not be part of it.

By UniProt entry, the sequences of proteins in these tests, tags left out.
UniProt Q9D4K7: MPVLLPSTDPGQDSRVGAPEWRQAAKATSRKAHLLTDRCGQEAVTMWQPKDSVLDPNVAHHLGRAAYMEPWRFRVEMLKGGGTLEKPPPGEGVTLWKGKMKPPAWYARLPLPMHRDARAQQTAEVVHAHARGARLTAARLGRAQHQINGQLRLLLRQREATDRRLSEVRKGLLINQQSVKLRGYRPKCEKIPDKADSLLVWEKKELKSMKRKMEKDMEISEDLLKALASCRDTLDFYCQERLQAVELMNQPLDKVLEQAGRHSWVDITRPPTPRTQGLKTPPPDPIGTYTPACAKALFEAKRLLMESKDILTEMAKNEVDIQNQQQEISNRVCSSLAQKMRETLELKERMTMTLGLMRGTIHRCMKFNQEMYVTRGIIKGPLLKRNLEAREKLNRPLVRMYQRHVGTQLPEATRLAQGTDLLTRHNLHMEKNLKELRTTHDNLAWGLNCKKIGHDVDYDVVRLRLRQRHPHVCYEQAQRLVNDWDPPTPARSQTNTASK

Target: FLAG-tagged WT-CCDC105 (mouse) (UniProt Q9D4K7)
Assay: co-IP; HEK293T cells co-transfected with FLAG-, MYC- and/or HA-tagged plasmids, lysed 48 h later in Pierce IP Lysis Buffer; lysates incubated overnight with FLAG antibody at 4°C, then Protein A/G agarose for 4 h; five washes; Western blot with anti-FLAG, anti-MYC or anti-HA

B1: HA-tagged TEX43 (protein, UniProt Q9D9I1 1-141)
chain: MASEKDDGPALPKLDDDNQTAENTCKPAEEQPQQLRWDDIHLPRFSLKQGMIPTRYVMPWKENMKFRNVNLQQAEACGIYAGPLEDSLFWGYSERLCHGEDRKAVLKKGLPEIKITDMPLHSPLSRYQSTVISHGFRRRLI
Question: Which binding does the source give for B1 here?
Answer: binds
